In PMC6718399:

Molecular target: Halo-PERP (PERP fused to an N-terminal HaloTag) (UniProt Q96FX8)
Test: affinity purification with mass spectrometry; HaloTag Mammalian Pull-Down System; 2 mg Mel202 lysate (HaloTag or Halo-PERP, 24 h post-transfection) on HaloLink resin at 4 °C overnight; five washes in TBS with 0.05% IGEPAL CA-360; elution by ProTEV, then SDS; three independent experiments

- binding: binds
Substance: SERCA2b (sarco/endoplasmic reticulum ATPase 2, isoform b) (from UniProt P16615-1 1-1042)

No constants are given. Whether binding was seen depends on the method and setting. In cells and extracts the contact can be indirect. A yes stands for co-enrichment or nearness to the bait. Other partners may have been found.
